{"source": "patent US4935579A", "about": "“Separation of m-diisopropylbenzene from p-diisopropylbenzene by azeotropic distillation with alcohols” (priority 1988, dated 1990)", "test": "Vapor-liquid equilibrium still: relative volatility of m-DIPB to p-DIPB with alcohol agent and azeotrope boiling point", "type": "physicochemical", "details": "starting mixture 50 % alcohol, 25 % m-DIPB, 25 % p-DIPB", "description": "The data in Tables 2 and 3 were obtained in a vapor-liquid equilibrium still. In each case, the starting material was a mixture containing 50 % alcohol, 25 % m-DIPB and 25 % p-DIPB. The boiling points of the azeotropes at 640 mm. Hg are shown. The relative volatilities are listed for each of the alcohols investigated.\nForty grams of m-DIPB - p-DIPB mixture and 40 grams of diethylene glycol butyl ether were charged to an Othmer type vapor-liquid equilibrium still and refluxed for thirteen hours. Analysis by gas chromatography gave a vapor composition of 68.9% m-DIPB, 31.1% p-DIPB; a liquid decomposition of […], 36.8% p-DIPB. This indicates a relative volatility of m-DIPB to p-DIPB of 1.29.\nForty grams of m-DIPB - p-DIPB mixture and 40 grams of diethylene gylcol methyl ether were charged to the vapor-liquid equilibrium still and refluxed for eleven hours. Analysis indicated a vapor composition of 66.7% m-DIPB, 33.3% p-DIPB; a liquid composition of […] which is a relative volatility of 1.28.", "note": "At least one structure is not confirmed: it was looked up by name or label, or the drawing left a doubt.", "data": [{"compound": "CC(O)c1ccccc1", "note": "(stereo not shown) [Methyl benzyl alcohol]", "values": [{"measurement": "Relative Volatility (m-DIPB to p-DIPB)", "result": 1.16}]}]}
